Assay results as given in the supplement of paper PMC10338343.
± gives the standard deviation. Only a part is listed here, and it is no random draw. Many entries were measured with a wide error.

System: EfPiwi piRISC loaded with piRNA #1 (26 nt)
Assay: pre-steady-state target cleavage rate (min^-1); guide: piRNA #1 5'p-UGAGGUAGUAGGUUGUAUAGUAUCCA; MIWI and MILI are mouse PIWI proteins and EfPiwi is from a freshwater sponge; tags in brackets are library labels; higher = faster piRNA-guided slicing of the target
Conditions: auxiliary factor: 500 nM Ephydatia muelleri Gtsf1
Outline: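 Cleave-'n-Seq: a transcribed, DNA-blocked target RNA library (0.1 nM) was mixed with 1 nM active affinity-purified piRISC carrying one synthetic guide, with or without 500 nM GTSF1 partner protein, in HEPES–potassium acetate buffer at 33 °C for 0–8 or 0–960 min. Uncleaved targets were sequenced and normalised to depth and to weakly complementary targets. Three trials were pooled, and k3 was capped at 0.0001 min^-1. The pre-steady-state cleavage rate came from a burst-and-steady-state fit.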

| Sequence | pre-steady-state target cleavage rate |
| --- | --- |
| GGAGACCAUACUAUAGUUCCUACUACCUCA | 0.000301 ± 0.0059 |
| GGAGACCUAUCUAUACCACCUACUACCUCA | 0.00113 ± 0.0027 |
| GGAGACCUAUGAUAUCAACACUACUACCUCA | 0.00106 ± 0.0073 |
| GGAGUGGAUACUAUACAACGUACUACGUCA | 0.0036 ± 0.0015 |
| GGAGUGGAUUCUAUAGAACCUACUACCUCA | 0.00117 ± 0.0038 |
| GGAGACCUAUCUUUACAACCUUCUACCUCA | 0.00103 ± 0.0055 |
| GGAGUGGAUACUAUACAAGCUACUACCACA | 0.0039 ± 0.0017 |
| GGAGACCAUACUAAAGAACCUACUACCUCA | 0.00225 ± 0.0046 |
| GGAGACCUAACAAUACAACCUACUACCUGA | 0.00336 ± 0.0037 |
| GGAGACCAUACUAUACAACGUACUUCCUCA | 0.00544 ± 0.0032 |
| GGAGAGGCAUACUAUACAACCUACUACCUCA | 0.0477 ± 0.017 |
| GGAGACGAUACUAUACAAGCUACUACGUCA | 0.00352 ± 0.0014 |
| GGAGACCUAUGUAUACAACCCACUACCUCA | 0.000887 ± 0.0073 |
| GGAGACCAUACUAUACAACCAACUACCACA | 0.00394 ± 0.0043 |
| GGAGACGAUACUAUACAACCCACUACCUCA | 0.00638 ± 0.0022 |

2 consecutive records out of the list so far, for reference:

| Sequence | pre-steady-state target cleavage rate |
| --- | --- |
| GGAGACCUAUGUAUACAACCCACUACCUCA | 0.000887 ± 0.0073 |
| GGAGACCAUACUAUACAACCAACUACCACA | 0.00394 ± 0.0043 |
